Test results published in PMC8406272.

Target: T1, Lsr2 (Streptomyces venezuelae ATCC 10712) (UniProt F2R951)
T1 sequence (looked up, limits assumed): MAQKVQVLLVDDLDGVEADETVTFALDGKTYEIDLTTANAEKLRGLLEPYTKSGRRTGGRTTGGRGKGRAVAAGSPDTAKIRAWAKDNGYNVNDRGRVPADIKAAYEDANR
Assay: EMSA
Details: 0-500 nM Lsr2, 1 nM probe, 5 mM Mg2+; 10 mM Tris pH 7.8, 5 mM MgCl2, 60 mM KCl, 10% glycerol; Lsr2 (EMSA, AFM): room temperature 10 min then ice 30 min; CmlR: 30 C 30 min; recombinant protein; label: 5' 32P; probe letters rebuilt from the primers and the genome

## ATATCCGGTACCCCAAGGAAGAGAACAGCTTCCCGATGGGTATCAAGAACACTAGCGTGCGCCCGCACGCCCAGTCCCGTAACGACGGGAAAAGCCACCCTTCTCAGTGCGGCGGCGTCACCCACGACAACATCCGCCACACCACCCGCTTCACGGTGGTCGGCAACCATCTCGCCCAGCACGACGAGCTGTCGCTGACGGCGATCGGCCTGGCCGTCCACATCCAGTCGCTCCTCTAGAGGATAT (double strand) [sven3556 probe]
  binding result: binds more weakly

The exact form of at least one protein or probe is not confirmed. Weaker means in comparison with the reference protein, sequence or condition of that experiment. Tags and fusion partners may be left off the protein sequences shown.
